Data from doi:10.1101/2024.04.24.590896 (bioRxiv, 2024).
No constants are given. Whether binding was seen depends on the method and setting. Some binding calls cover weakened binding; strength is not graded here.

Biological target: T1, syntaxin 18 SNARE domain (aa 229-312) (Mus musculus, UniProt Q8VDS8 229-312)
T1 sequence: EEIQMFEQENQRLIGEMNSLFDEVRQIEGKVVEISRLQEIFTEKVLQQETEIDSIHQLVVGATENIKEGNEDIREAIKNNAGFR
Test: native gel or EMSA + SEC

Substance | binding
Mixed_SNAP1 (Membrin, aa 119-189; Use1, aa 174-239) (from UniProt O35166;Q9CQ56) | binds
Mixed_SNAP2 (Sec20, aa 133-198; Bet1, aa 1-95) (from UniProt Q6QD59;O35623) | binds
